Results as given in patent US9156906B2, “Glycopeptides and methods of making and using them” (THE REGENTS OF THE UNIVERSITY OF CALIFORNIA, priority 2008, dated 2015).
Not every detail of the peptide structures is certain; ends, links or a residue may be inferred. Where a SMILES comes first, the peptide text is derived from it.

What was measured:
[1] = system: β-Gal-[1->3]-α-GalNAc-O-specific T cell clones; assay: 51Cr release cytotoxicity assay with TF-specific CTL clones on antigen-pulsed EL-4 targets (fine specificity, cross-reactivity); type: cell-based, mouse; conditions: clones B1, C3, D4, 5:1 E/T
Protocol: CTL clones were generated in C57BL/6 mice (H-2^b) immunized with a K^b-restricted designer alanine-rich glycopeptide sequence that contained TF, sequence: • AIIA(β-Gal-[1->3]-α-GalNAc-O-serine)FAAL
TF-specific CTL clones were tested for the capacity to cross-react to a glycopeptide with a completely unrelated sequence but carrying the sugar at the same position (5 within a 9mer). For this analysis, we designed a modified Sendai virus immunodominant epitope NP 324-332 (5N->5S-TF), sequence: • FAPG (β-Gal-[1->3]-α-GalNAc-O-S)YPAL This epitope is an ideal proof concept because when bonded to K^b class I MHC molecules it exposes position 5 as a major TcR contact.
To define the role of the glycosylated amino acid linker for sugar recognition by T cells, the same T cell clones were also tested for cross-reactivity to three alanine-rich glycopeptides with identical sequences as the immunogen: AIIA(β-Gal-[1->3]-α-GalNAc-O-serine)FAAL, but where TF was linked to different amino acid residues.
T cells were studied with a classic ^51Cr release cytotoxicity assay at a 5:1 effector/target (E/T) ratio. The EL-4 thymoma cell line (H-2)^b, class II MHC negative, was used as the target in these experiments. The cytolytic response to EL-4 cells in the absence of glycopeptides (background) was also assayed, and subtracted, to quantify the net specific lysis. […]

[2] = system: MUC1/MT transgenic mice; assay: Glycopeptide vaccination of tumor bearing MUC1/MT transgenic mice, CTL activity by 51Cr release on EL-4; conditions: MUC1/MT mice 14, 18, 24 weeks old; glycopeptide in IFA; EL-4 targets

CC[C@H](C)[C@H](NC(=O)[C@H](C)N)C(=O)N[C@H](C(=O)N[C@@H](C)C(=O)N[C@@H](CO)C(=O)N[C@@H](Cc1ccccc1)C(=O)N[C@@H](C)C(=O)N[C@@H](C)C(=O)N[C@@H](CC(C)C)C(=O)O)[C@@H](C)CC [AIIASFAAL, reference compound] (H-AIIASFAAL-OH)
cytolytic response of TF-specific CTL clones to antigen (51Cr release, net lysis) [1]: did not respond
CTL activity after vaccination [2]: greatly diminished activity
